Results from article doi:10.1101/2023.06.30.547268.
Results are given in words; binding and its absence hold for the method and conditions named.

Sequences of proteins named here, by UniProt entry; tags and fusion partners are left off. A change or cut given only in a name is not applied to a line headed by its entry.
UniProt Q18CI2, whole entry, looked up, stated change not applied: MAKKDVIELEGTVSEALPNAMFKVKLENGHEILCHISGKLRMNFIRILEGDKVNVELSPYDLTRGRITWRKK

Biological target: Clostridioides difficile translation initiation factor 1 (Clostridioides difficile) (UniProt Q18CI2)
Assay: NMR 15N relaxation

Clostridioides difficile translation initiation factor 1 (from UniProt Q18CI2 1-72)
binding: no binding
